Test [1] deals with T1, RANK (mouse (endogenous in bone marrow-derived osteoclasts)) (UniProt O35305).
T1 sequence: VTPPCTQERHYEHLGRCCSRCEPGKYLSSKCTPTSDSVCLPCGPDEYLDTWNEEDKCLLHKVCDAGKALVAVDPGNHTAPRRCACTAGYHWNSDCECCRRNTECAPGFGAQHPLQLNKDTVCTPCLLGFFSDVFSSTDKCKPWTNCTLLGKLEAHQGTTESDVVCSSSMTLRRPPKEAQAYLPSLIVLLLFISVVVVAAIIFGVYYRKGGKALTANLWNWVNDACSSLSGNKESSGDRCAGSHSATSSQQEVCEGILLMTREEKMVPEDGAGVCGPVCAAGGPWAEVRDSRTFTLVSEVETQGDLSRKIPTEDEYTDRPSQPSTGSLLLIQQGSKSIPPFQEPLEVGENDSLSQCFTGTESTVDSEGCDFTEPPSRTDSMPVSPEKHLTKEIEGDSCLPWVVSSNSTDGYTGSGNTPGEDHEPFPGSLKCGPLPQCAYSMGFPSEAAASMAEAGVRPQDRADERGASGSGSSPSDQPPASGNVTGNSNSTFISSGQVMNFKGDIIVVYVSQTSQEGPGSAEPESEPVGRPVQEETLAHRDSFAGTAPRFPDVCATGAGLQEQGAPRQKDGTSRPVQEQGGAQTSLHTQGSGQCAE
Kind of test: condition: only without RANKL stimulation (M-CSF only); co-IP; control cells treated only with 30 ng/ml M-CSF for 5 days (no RANKL), lysed in RIPA; anti-RANK or Ano1 antibody, Protein A/G agarose, immunoblot.

Test [2] concerns the target T1, RANK (mouse (endogenous in bone marrow-derived osteoclasts)). Kind of test: co-IP; RANKL-induced osteoclasts (30 ng/ml M-CSF and 50 ng/ml RANKL, 5 days) lysed in RIPA; total protein incubated with anti-RANK or Ano1 antibody 2 h at 4 °C, Protein A/G agarose, immunoblot for RANK, Ano1 or TRAF6; some samples treated from day 3 with Benzbromarone (10 μM), Ano1 siRNA or negative control, Ano1 plasmid or mutant Ano1 plasmid. Background: Immunoblotting shows a protein as a band on a membrane.

Results are given in words; binding and its absence hold for the method and conditions named. In cells and extracts the contact can be indirect. Some results given as binding are weak or reduced against the parent protein; the word gives no strength.

B1: Anoctamin 1 (protein, UniProt Q8BHY3 1-960)
chain: MRVPEKYSTLPAEDRSVHIVNICAIEDLGYLPSEGTLLNSLSVDPDAECKYGLYFRDGKRKVDYILVYHHKRASGSRTLARRGLQNDMVLGTRSVRQDQPLPGKGSPVDAGSPEVPMDYHEDDKRFRREEYEGNLLEAGLELENDEDTKIHGVGFVKIHAPWHVLCREAEFLKLKMPTKKVYHISETRGLLKTINSVLQKITDPIQPKVAEHRPQTTKRLSYPFSREKQHLFDLTDRDSFFDSKTRSTIVYEILKRTTCTKAKYSMGITSLLANGVYSAAYPLHDGDYEGDNVEFNDRKLLYEEWASYGVFYKYQPIDLVRKYFGEKVGLYFAWLGAYTQMLIPASIVGVIVFLYGCATVDENIPSMEMCDQRYNITMCPLCDKTCSYWKMSSACATARASHLFDNPATVFFSVFMALWAATFMEHWKRKQMRLNYRWDLTGFEEEEEAVKDHPRAEYEARVLEKSLRKESRNKETDKVKLTWRDRFPAYFTNLVSIIFMIAVTFAIVLGVIIYRISTAAALAMNSSPSVRSNIRVTVTATAVIINLVVIILLDEVYGCIARWLTKIEVPKTEKSFEERLTFKAFLLKFVNSYTPIFYVAFFKGRFVGRPGDYVYIFRSFRMEECAPGGCLMELCIQLSIIMLGKQLIQNNLFEIGIPKMKKFIRYLKLRRQSPSDREEYVKRKQRYEVDFNLEPFAGLTPEYMEMIIQFGFVTLFVASFPLAPLFALLNNIIEIRLDAKKFVTELRRPVAIRAKDIGIWYNILRGVGKLAVIINAFVISFTSDFIPRLVYLYMYSQNGTMHGFVNHTLSSFNVSDFQNGTAPNDPLDLGYEVQICRYKDYREPPWSEHKYDISKDFWAVLAARLAFVIVFQNLVMFMSDFVDWVIPDIPKDISQQIHKEKVLMVELFMREEQGKQQLLDTWMEKEKPRDVPCNNHSPTTHPEAGDGSPVPSYEYHGDAL
Regarding B1, the binding result in test [1] is reported as “no binding”; in test [2] it was “binds”.

B2: Ano1 (overexpressed from plasmid, wild type) (protein, UniProt Q8BHY3 1-960)
chain: B1 chain
For the molecule B2, the binding entry in test [2] is “binds”.

B3: tumor necrosis factor (TNF) receptor-associated factor 6 (protein, UniProt P70196 1-530)
chain: MSLLNCENSCGSSQSSSDCCAAMAASCSAAVKDDSVSGSASTGNLSSSFMEEIQGYDVEFDPPLESKYECPICLMALREAVQTPCGHRFCKACIIKSIRDAGHKCPVDNEILLENQLFPDNFAKREILSLTVKCPNKGCLQKMELRHLEDHQVHCEFALVNCPQCQRPFQKCQVNTHIIEDCPRRQVSCVNCAVSMAYEEKEIHDQSCPLANIICEYCGTILIREQMPNHYDLDCPTAPIPCTFSVFGCHEKMQRNHLARHLQENTQLHMRLLAQAVHNVNLALRPCDAASPSRGCRPEDPNYEETIKQLESRLVRQDHQIRELTAKMETQSMYVGELKRTIRTLEDKVAEMEAQQCNGIYIWKIGNFGMHLKSQEEERPVVIHSPGFYTGRPGYKLCMRLHLQLPTAQRCANYISLFVHTMQGEYDSHLPWPFQGTIRLTILDQSEALIRQNHEEVMDAKPELLAFQRPTIPRNPKGFGYVTFMHLEALRQGTFIKDDTLLVRCEVSTRFDMGGLRKEGFQPRSTDAGV
As for B3, the binding result in test [2] is “binds”.

Source of the values: article PMC9130328.
